# From paper PMC12431657, “Discovery and mechanistic insights of dibenzoylmethane as a broad spectrum inhibitor of coronavirus” (PLOS Pathogens, 2025)
# Counter-ions that a name gives are not always drawn. Like-named read-outs stand apart in the source and are kept apart here. The campaign covered roughly 3,300 compounds. About 60 (2%) showed an effect of 50% or more. The list shows a part of the results.
# Test system: HCoV-OC43
# Set-up: species or system RD; HTS, protection from HCoV-OC43 induced cell death, luminescent cell viability (CellCounting-Lite 2.0), inhibition rate
# Details: 24 h post infection, 1 h compound pre-incubation, 10 µM, inhibitor
SMILES,OC43 Inhibition rate,"OC43 Inhibition rate (OC43 Inhibition rate, 24 h)"
CNc1ncnc2c1ncn2[C@@H]1O[C@H](CO)[C@@H](O)[C@H]1O [N6-Methyladenosine],1.8%,–
O=C(O)C1=C[C@@H](O)[C@@H](O)[C@H](O)C1 [Shikimic acid],-4.9%,–
Cc1ccc(C=O)s1 [5-Methyl-2-thiophenecarboxaldehyde],0%,–
O=C(O)[C@H]1CC[C@H](O)CC1 [trans-4-Hydroxycyclohexanecarboxylic acid],0.3%,–
C[C@H]1CC[C@@]2(OC1)O[C@H]1C[C@H]3[C@@H]4CC=C5C[C@@H](O[C@@H]6O[C@@H](C)[C@H](O)[C@@H](O)[C@H]6O)C[C@@H](O[C@@H]6O[C@H](C)[C@H](O)[C@H](O)[C@H]6O)[C@]5(C)[C@H]4CC[C@]3(C)[C@H]1[C@@H]2C [Liriopesides B],13.7%,–
COC(=O)C[C@H]1[C@]2(C)C3=C(C)[C@H](c4ccoc4)C[C@H]3O[C@@H]2[C@@H]2OC(=O)[C@]3(C)C=CC(=O)[C@@]1(C)[C@@H]23 [Nimbolide],5.8%,–
C=C(C)[C@@H]1CC[C@]2(C(=O)O)CC[C@]3(C)[C@H](CC[C@@H]4[C@@]5(C)CC[C@H](O)C(C)(C)[C@@H]5CC[C@]43C)[C@@H]12 [Betulinic acid],-18.3%,–
O=C(/C=C/c1ccc(O)c(O)c1)c1ccc(O[C@@H]2O[C@H](CO)[C@@H](O)[C@H](O)[C@H]2O)c(O)c1O [Marein],0.4%,–
O=c1ccc2cc3ccoc3cc2o1 [Psoralen],1.3%,–
Oc1ccc2c(c1)OC[C@]1(O)Cc3cc(O)c(O)cc3[C@H]21 [Brazilin],26.3%,–
C[C@H]1O[C@@H](O[C@H]2CC[C@@]3(C)[C@@H](CC[C@]4(C)[C@@H]3C=CC3=C5CC(C)(C)CC[C@]5(CO)[C@@H](O)C[C@]34C)[C@]2(C)CO)[C@H](O[C@@H]2O[C@H](CO)[C@@H](O)[C@H](O)[C@H]2O)[C@@H](O[C@@H]2O[C@H](CO)[C@@H](O)[C@H](O)[C@H]2O)[C@H]1O [Buddlejasaponin IVb],0.5%,–
NCC(O)c1ccccc1 (stereo not drawn) [2-Amino-1-phenylethanol],0%,–
CC1(C)C[C@@H](O)[C@]2(C)CC[C@]3(C)C(=CC[C@@H]4[C@@]5(C)CC[C@H](O)[C@](C)(CO)[C@@H]5CC[C@]43C)[C@@H]2C1 [Soyasapogenol B],-1.1%,–
O=C1CCC[C@@H]2[C@H]3CCCN4CCC[C@@H](CN12)[C@@H]34 [Matrine],-0.1%,–
CCCCCC1C(=O)CCC1CC(=O)OC (stereo not drawn) [Methyl dihydrojasmonate],0.1%,–
COC(=O)[C@H]1O[C@@H](O[C@H]2CC[C@]3(C)[C@H]4CC=C5[C@@H]6CC(C)(C)CC[C@]6(C(=O)O)CC[C@@]5(C)[C@]4(C)CC[C@H]3[C@]2(C)C=O)[C@H](O)[C@@H](O)[C@@H]1O [Gypsogenin-3-O-glucuronide],-0.6%,–
CC(=O)N[C@@H](CC(C)C)C(=O)N[C@@H](CC(C)C)C(=O)N[C@H](C=O)CCCNC(=N)N [Leupeptin (hemisulfate)],23.3%,–
C[C@@H]1O[C@@H](O[C@H]2[C@H](O[C@H]3[C@H](O[C@H]4CC[C@]5(C)[C@H]6CC=C7[C@@H]8CC(C)(C)CC[C@]8(C(=O)O)CC[C@@]7(C)[C@]6(C)CC[C@H]5C4(C)C)OC[C@H](O)[C@@H]3O)O[C@H](CO)[C@@H](O)[C@@H]2O)[C@H](O)[C@H](O)[C@H]1O [Raddeanin A],-7.3%,–
C[C@@H]1O[C@@H](O[C@H]2[C@H](O)[C@@H](O)[C@H](OC[C@H]3O[C@@H](OC(=O)[C@]45CCC(C)(C)C[C@H]4C4=CC[C@@H]6[C@@]7(C)CC[C@H](O[C@@H]8OC[C@H](O)[C@H](O)[C@H]8O)[C@@](C)(CO)[C@@H]7CC[C@@]6(C)[C@]4(C)CC5)[C@H](O)[C@@H](O)[C@@H]3O)O[C@@H]2CO)[C@H](O)[C@H](O)[C@H]1O [Cauloside D],–,-0.4%
CC(C)=CCC[C@](C)(O)[C@H]1CC[C@]2(C)[C@@H]1[C@H](O)C[C@@H]1[C@@]3(C)CC[C@H](O[C@@H]4O[C@H](CO)[C@@H](O)[C@H](O)[C@H]4O[C@@H]4O[C@H](CO)[C@@H](O)[C@H](O)[C@H]4O)C(C)(C)[C@@H]3CC[C@]12C [20(S)-Ginsenoside Rg3],7.6%,–
OCCc1c[nH]c2ccc(O)cc12 [5-Hydroxytryptophol],2%,–
COc1ccc(C2COc3cc(O[C@@H]4O[C@H](CO)[C@@H](O)[C@H](O)[C@H]4O)ccc3C2)c(O)c1OC (stereo partly drawn) [Isomucronulatol 7-O-glucoside],11.3%,–
O=c1cc(-c2ccc(O)cc2)oc2cc(O[C@@H]3O[C@H](CO)[C@@H](O)[C@H](O)[C@H]3O[C@@H]3OC[C@](O)(CO)[C@H]3O)cc(O)c12 [Apiin],-0.4%,–
C=C1[C@@H]2CC[C@@H]3[C@](C2)(C(=O)[C@@H](O)[C@@H]2C(C)(C)[C@H]4CC(=O)[C@@]32CO4)[C@@H]1OC(C)=O [Maoecrystal A],-0.4%,–
C=C1C(=O)O[C@H]2[C@H]1CC[C@]1(C)O[C@@]13CC[C@@](C)(O)[C@H]23 [Epoxymicheliolide],0.1%,–
CN(C)[C@@H]1C(O)=C(C(N)=O)C(=O)[C@@]2(O)C(O)=C3C(=O)c4c(O)cccc4[C@@](C)(O)[C@H]3C[C@@H]12 [Tetracycline (hydrochloride)],41.7%,–
C[C@H](CCC(=O)O)[C@H]1CC[C@H]2[C@@H]3CC[C@@H]4C[C@H](O)CC[C@]4(C)[C@H]3C[C@H](O)[C@]12C [Deoxycholic acid sodium salt],–,1.2%

# 2 neighbouring compounds already listed, for reference:
SMILES,OC43 Inhibition rate,"OC43 Inhibition rate (OC43 Inhibition rate, 24 h)"
COc1ccc(C2COc3cc(O[C@@H]4O[C@H](CO)[C@@H](O)[C@H](O)[C@H]4O)ccc3C2)c(O)c1OC (stereo partly drawn) [Isomucronulatol 7-O-glucoside],11.3%,–
O=c1cc(-c2ccc(O)cc2)oc2cc(O[C@@H]3O[C@H](CO)[C@@H](O)[C@H](O)[C@H]3O[C@@H]3OC[C@](O)(CO)[C@H]3O)cc(O)c12 [Apiin],-0.4%,–

# (continued)

SMILES,OC43 Inhibition rate,"OC43 Inhibition rate (OC43 Inhibition rate, 24 h)"
O=C(O)CCCCCCC[C@@H](O)[C@@H](O)CCCCCCO [Aleuritic acid],0.2%,–
OC1OC[C@@H](O)[C@@H](O)[C@@H]1O (stereo partly drawn) [D-Arabinose],–,-0.1%
C[C@]12CCC(=O)C=C1CC[C@@H]1[C@@H]2C(=O)C[C@@]2(C)[C@H]1CC[C@]2(O)C(=O)CO [Cortisone],0.8%,–
CC/C=C\C/C=C\C/C=C\C/C=C\C/C=C\CCCC(=O)O [Eicosapentaenoic Acid],5.6%,–
CC(=O)[C@]1(O)Cc2c(O)c3c(c(O)c2[C@@H](O[C@H]2C[C@H](N)[C@H](O)[C@H](C)O2)C1)C(=O)c1c(O)cccc1C3=O [Carubicin (hydrochloride)],-5.3%,–
N[C@H](CC(=O)O)C(=O)O [(-)-Aspartic acid],-6.5%,–
COc1cc2oc3cc(O)c(OC)c(CC=C(C)C)c3c(=O)c2c(O)c1CC=C(C)C [beta-Mangostin],-0.3%,–
COc1cc(O)c2c(=O)cc(-c3ccc(OC)c(-c4c(O)cc(O)c5c(=O)cc(-c6ccc(O)cc6)oc45)c3)oc2c1 [Ginkgetin],-5.8%,–
COc1cc2c(cc1OC)-c1c(C)c3ccc(OC)c(OC)c3c[n+]1CC2 [Dehydrocorydaline (nitrate)],–,0%
CC(C)=CCc1cc2ccc(=O)oc2cc1O [Demethylsuberosin],-0.9%,–
C/C=C1/CN2[C@H]3Cc4c([nH]c5ccccc45)[C@]2(O)C[C@@H]1[C@@]3(CO)C(=O)OC [16-Epivoacarpine],0.3%,–
Cc1cccs1 [2-Methylthiophene],0.7%,–
O=C(O)C(O)Cc1cc2ccccc2[nH]1 (stereo not drawn) [Indolelactic acid],4.1%,–
NC(=O)c1ccccc1O [Salicylamide],-0.2%,–
OCC1=C[C@H](N[C@H]2C[C@H](CO)[C@@H](O[C@@H]3O[C@H](CO)[C@@H](O)[C@H](O)[C@H]3O)[C@H](O)[C@H]2O)[C@H](O)[C@@H](O)[C@@H]1O [Validamycin A],2.9%,–
CC1(C)CC[C@]2(C(=O)O)CC[C@]3(C)C(=CC[C@@H]4[C@@]5(C)CCC(=O)C(C)(C)[C@@H]5CC[C@]43C)[C@@H]2C1 [Oleanonic acid],20%,–
CC(C)N(CCCCOCC(=O)O)c1cnc(-c2ccccc2)c(-c2ccccc2)n1 [MRE-269],41.2%,–
C[C@]12CC[C@H](O)C[C@H]1CC[C@@H]1[C@@H]2C[C@@H](O)[C@]2(C)[C@@H](C3=CC(=O)OC3)CC[C@]12O [Digoxigenin],10.9%,–
COc1ccc(-c2coc3cc(O)ccc3c2=O)cc1 [Formononetin],0.5%,–
C=C[C@H]1CN2CC[C@H]1C[C@H]2[C@H](O)c1ccnc2ccc(OC)cc12 [Quinine],–,0.5%
O=C(O)CCCc1c[nH]c2ccccc12 [Indole-3-butyric acid],-0.3%,–
CC(C)[C@@H](C)/C=C/[C@@H](C)[C@H]1CC[C@H]2C3=CC=C4C[C@@H](O)CC[C@]4(C)[C@H]3CC[C@]12C [Ergosterol],-0.2%,–
NC(Cc1cc(I)c(Oc2cc(I)c(OS(=O)(=O)O)c(I)c2)c(I)c1)C(=O)O (stereo not drawn) [Thyroxine sulfate],-1.3%,–
NCCCCC(=O)O [5-Aminovaleric acid],-1.8%,–
COc1c(O)cc2occ(-c3ccc(O)cc3)c(=O)c2c1O [Tectorigenin],-0.2%,–
c1ccc(CC2=NCCN2)cc1 [Tolazoline (hydrochloride)],7.1%,–
COc1cc(-c2coc3cc4c(c(OC)c3c2=O)OCO4)cc(OC)c1OC [Irisflorentin],3.8%,–
